Reference: paper PMC10832218

What was measured:
[1] = target: T1, BORIS (Brother of Regulator of Imprinted Sites) (human) (UniProt Q8NI51); assay: co-IP; Nuclear Complex Co-IP Kit (Active Motif); 200 ug nuclear extract of NIH3T3 + BORIS (clone#2) cells with 3 ug antibody overnight at 4 C, Protein G beads, low salt and detergent IP buffers; extracts with or without benzonase (125 U/mL, on ice, 90 min); Western blot
T1 sequence: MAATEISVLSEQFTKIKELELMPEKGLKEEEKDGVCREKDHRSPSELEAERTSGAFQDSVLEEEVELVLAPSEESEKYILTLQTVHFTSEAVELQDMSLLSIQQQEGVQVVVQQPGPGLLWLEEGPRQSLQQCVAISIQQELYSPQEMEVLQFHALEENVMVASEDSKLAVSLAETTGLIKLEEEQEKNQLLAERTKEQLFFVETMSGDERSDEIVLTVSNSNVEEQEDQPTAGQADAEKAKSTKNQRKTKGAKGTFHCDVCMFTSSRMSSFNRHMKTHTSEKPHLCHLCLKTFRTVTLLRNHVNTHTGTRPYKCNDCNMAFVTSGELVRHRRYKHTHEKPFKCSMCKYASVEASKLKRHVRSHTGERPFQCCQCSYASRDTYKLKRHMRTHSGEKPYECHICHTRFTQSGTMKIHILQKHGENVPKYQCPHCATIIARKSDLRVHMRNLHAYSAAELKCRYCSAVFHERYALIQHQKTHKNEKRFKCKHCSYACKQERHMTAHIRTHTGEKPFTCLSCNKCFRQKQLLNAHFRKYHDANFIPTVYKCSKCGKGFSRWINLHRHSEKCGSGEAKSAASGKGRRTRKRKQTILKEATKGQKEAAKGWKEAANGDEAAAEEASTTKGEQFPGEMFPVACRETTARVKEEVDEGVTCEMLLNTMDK

[2] = target: SRCAP (SNF-2-related CREBBP activator protein) (mouse (endogenous in NIH3T3)); assay: as above

binding [1]: binds
Molecule: SRCAP (SNF-2-related CREBBP activator protein) (mouse (endogenous in NIH3T3))

binding [2]: binds
B1: CTCF (CCCTC-Binding Factor) (protein, UniProt Q61164 1-736)
chain: MEGEAVEAIVEESETFIKGKERKTYQRRREGGQEEDACHLPQNQTDGGEVVQDVNSSVQMVMMEQLDPTLLQMKTEVMEGTVAPEAEAAVDDTQIITLQVVNMEEQPINIGELQLVQVPVPVTVPVATTSVEELQGAYENEVSKEGLAESEPMICHTLPLPEGFQVVKVGANGEVETLEQGELPPQEDSSWQKDPDYQPPAKKTKKTKKSKLRYTEEGKDVDVSVYDFEEEQQEGLLSEVNAEKVVGNMKPPKPTKIKKKGVKKTFQCELCSYTCPRRSNLDRHMKSHTDERPHKCHLCGRAFRTVTLLRNHLNTHTGTRPHKCPDCDMAFVTSGELVRHRRYKHTHEKPFKCSMCDYASVEVSKLKRHIRSHTGERPFQCSLCSYASRDTYKLKRHMRTHSGEKPYECYICHARFTQSGTMKMHILQKHTENVAKFHCPHCDTVIARKSDLGVHLRKQHSYIEQGKKCRYCDAVFHERYALIQHQKSHKNEKRFKCDQCDYACRQERHMIMHKRTHTGEKPYACSHCDKTFRQKQLLDMHFKRYHDPNFVPAAFVCSKCGKTFTRRNTMARHADNCAGPDGVEGENGGETKKSKRGRKRKMRSKKEDSSDSEENAEPDLDDNEEEEEPAVEIEPEPEPQPQPPPPPQPVAPAPPPAKKRRGRPPGRTNQPKQNQPTAIIQVEDQNTGAIENIIVEVKKEPDAEPAEGEEEEAQAATTDAPNGDLTPEMILSMMDR

binding [2]: binds
B2: BORIS (Brother of Regulator of Imprinted Sites) (protein, UniProt Q8NI51 1-663)
chain: T1 sequence

These are yes or no findings as the source states them, for the method shown. In cells and extracts the contact can be indirect. Binding can be weak; no strength is given. One block for each molecule: values may come before it.
